{"source": "PubChem BioAssay AID1671195 | Yale University – 2021", "aim": "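Regulators of LDL receptor activity judged by labelled LDL uptake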 (primary screen)", "cells": "human Huh7 hepatoma cells", "knock-down reagent": "siRNA pool against human genes, 18 nM", "time to read-out": "about 2 to 2.5 days of knockdown, then 8 h LDL uptake", "treatment": "DiI-labelled LDL at 30 µg/ml for 8 h, in lipoprotein-deficient serum medium", "measurement": "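Per-cell DiI-LDL intensity by automated imaging; well means scaled to the plate median and given as a robust z-score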", "scale": "robust z-score: higher = more LDL uptake after knockdown", "rule for the call": "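a gene counts as active if at least two replicate z-scores exceed ±2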", "note": "The deposit covers about 22,000 reagents; below is a part drawn at random. Of all reagents, about 1,510 (6.9%) got an active call. 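Active includes knockdowns raising or lowering LDL uptake; positive z-scores mean more uptake, negative mean less.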 A number with no mark means an inactive call. No sequences are given here."}
{"target gene": "BRWD1 (bromodomain and WD repeat domain containing 1)", "robust z-score, replicate 1": 0.159, "robust z-score, replicate 2": -0.611, "robust z-score, replicate 3": 1.01}
{"target gene": "FITM1 (fat storage inducing transmembrane protein 1)", "robust z-score, replicate 1": 0.425, "robust z-score, replicate 2": 0.263, "robust z-score, replicate 3": 0.687}
{"target gene": "PEBP4 (phosphatidylethanolamine binding protein 4)", "robust z-score, replicate 1": -0.26, "robust z-score, replicate 2": -0.516, "robust z-score, replicate 3": -0.536}
{"target gene": "AMBP (alpha-1-microglobulin/bikunin precursor)", "robust z-score, replicate 1": 1.7, "robust z-score, replicate 2": 1.4, "robust z-score, replicate 3": 1.6}
{"target gene": "SPICE1 (spindle and centriole associated protein 1)", "robust z-score, replicate 1": 0.679, "robust z-score, replicate 2": 0.122, "robust z-score, replicate 3": 0.734}
{"target gene": "PDIA5 (protein disulfide isomerase family A member 5)", "robust z-score, replicate 1": 0.684, "robust z-score, replicate 2": -0.103, "robust z-score, replicate 3": 1.16}
{"target gene": "ZACN (zinc activated ion channel)", "robust z-score, replicate 1": 0.144, "robust z-score, replicate 2": -0.395, "robust z-score, replicate 3": 0.773}
{"target gene": "UBE3A (ubiquitin protein ligase E3A)", "robust z-score, replicate 1": 0.228, "robust z-score, replicate 2": 3.1, "robust z-score, replicate 3": 1.14}
{"target gene": "FBXO21 (F-box protein 21)", "robust z-score, replicate 1": 0.327, "robust z-score, replicate 2": 1.99, "robust z-score, replicate 3": -0.932}
{"target gene": "PDE7A (phosphodiesterase 7A)", "robust z-score, replicate 1": -0.891, "robust z-score, replicate 2": -0.793, "robust z-score, replicate 3": -1.09}
{"target gene": "LOC440972 (retired record)", "robust z-score, replicate 1": -1.06, "robust z-score, replicate 2": -1.33, "robust z-score, replicate 3": -1.34}
{"target gene": "RNF103 (ring finger protein 103)", "robust z-score, replicate 1": 0.0165, "robust z-score, replicate 2": 0.773, "robust z-score, replicate 3": 0.73}
{"target gene": "HNRNPA1P33 (heterogeneous nuclear ribonucleoprotein A1 pseudogene 33)", "robust z-score, replicate 1": -1.33, "robust z-score, replicate 2": -1.08, "robust z-score, replicate 3": -1.61}
{"target gene": "OR7G2 (olfactory receptor family 7 subfamily G member 2)", "robust z-score, replicate 1": -1.3, "robust z-score, replicate 2": -1.13, "robust z-score, replicate 3": -1.28}
{"target gene": "LMF1 (lipase maturation factor 1)", "robust z-score, replicate 1": -0.865, "robust z-score, replicate 2": -0.715, "robust z-score, replicate 3": -0.574}
{"target gene": "TRABD2B (TraB domain containing 2B)", "robust z-score, replicate 1": 0.28, "robust z-score, replicate 2": -0.107, "robust z-score, replicate 3": -0.109}
